Measured values taken from paper PMC1838920.
Results are given in words; binding and its absence hold for the method and conditions named. Some binding calls cover weakened binding; strength is not graded here. For some of these results: Where a sequence is shown, tags or fusion partners need not be part of it.

The chains behind the UniProt entries cited, without tags or fusion partners.
UniProt P0AAI3: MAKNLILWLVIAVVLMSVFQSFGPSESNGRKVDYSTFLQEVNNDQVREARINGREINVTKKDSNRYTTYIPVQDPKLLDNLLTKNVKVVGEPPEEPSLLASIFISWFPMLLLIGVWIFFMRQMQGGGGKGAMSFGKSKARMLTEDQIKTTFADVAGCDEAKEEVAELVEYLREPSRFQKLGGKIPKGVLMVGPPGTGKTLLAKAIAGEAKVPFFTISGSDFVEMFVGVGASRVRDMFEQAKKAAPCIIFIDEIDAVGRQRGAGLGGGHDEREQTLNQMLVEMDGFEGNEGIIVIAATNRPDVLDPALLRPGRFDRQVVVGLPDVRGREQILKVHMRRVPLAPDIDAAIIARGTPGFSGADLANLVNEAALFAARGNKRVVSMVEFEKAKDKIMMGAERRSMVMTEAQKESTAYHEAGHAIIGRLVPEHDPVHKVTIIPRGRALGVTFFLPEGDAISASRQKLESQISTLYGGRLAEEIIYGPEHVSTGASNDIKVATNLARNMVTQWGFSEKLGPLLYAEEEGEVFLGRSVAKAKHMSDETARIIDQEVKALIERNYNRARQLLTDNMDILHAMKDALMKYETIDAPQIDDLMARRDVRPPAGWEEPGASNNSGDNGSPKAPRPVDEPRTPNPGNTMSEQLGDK

Assays:
[1] = biological target: CIII R32A (bacteriophage lambda) (UniProt P03044); experiment: electrophoresis; oligomers of CIII mutants and wild type CIII seen by electrophoresis; data not shown
[2] = biological target: CIII R27A (bacteriophage lambda) (UniProt P03044); experiment: as above
[3] = biological target: T1, His6-CIII (bacteriophage lambda CIII) (bacteriophage lambda), P03044; experiment: SDS electrophoresis with western blot; different concentrations of purified His6-CIII on 4-12% NuPAGE, western blot with antibodies against the His6 tag; oligomers partially resist SDS; both purified; settings: remark: other sources report otherwise
T1 chain: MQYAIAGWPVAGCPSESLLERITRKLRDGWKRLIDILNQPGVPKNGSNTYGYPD

[4] = biological target: T1, His6-CIII (bacteriophage lambda CIII) …; experiment: electrophoresis; oligomers of CIII mutants and wild type CIII seen by electrophoresis; data not shown; settings: remark: other sources report otherwise
[5] = biological target: T2, CIII made in cells following λ infection (bacteriophage lambda), P03044; experiment: electrophoresis; electrophoresis of cells following λ infection; data not shown; settings: remark: other sources report otherwise
T2 chain: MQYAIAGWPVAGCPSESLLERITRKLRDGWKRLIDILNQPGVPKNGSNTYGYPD

GST-FtsH (E. coli) = GST-FtsH (E. coli) (UniProt P0AAI3); experiment: cross-linking; 4 µM CII, 1 µM GST-FtsH, CIII in different concentrations, 0.1 mg/ml BSA in PBS, with or without 10 mM AMP-PNP (no nucleotide dependence), 5 minutes at 42°C, then 0.25% glutaraldehyde 2 minutes, stopped by 200 mM glycine; western blot with antibodies against CII; both purified

**Q.** For CIII R32A (from UniProt P03044 1-54), which binding [1] is on record?
**A.** Its binding is “binds”.

**Q.** How did the binding [2] turn out when CIII R27A (from UniProt P03044 1-54) was run?
**A.** Its binding is “binds”.

B1: His6-CIII (bacteriophage lambda CIII), P03044 1-54 (natural protein)
chain: MQYAIAGWPVAGCPSESLLERITRKLRDGWKRLIDILNQPGVPKNGSNTYGYPD
**Q.** With B1 as the molecule, how does the binding [3] read?
**A.** Its binding is “binds”.

**Q.** And the binding [4]?
**A.** Its binding is “binds”.

B2: CIII made in cells following λ infection, P03044 1-54 (protein)
chain: MQYAIAGWPVAGCPSESLLERITRKLRDGWKRLIDILNQPGVPKNGSNTYGYPD
**Q.** With B2 as the molecule, how does the binding [5] read?
**A.** The binding was “binds”.

B3: CII (bacteriophage lambda CII transcriptional activator) (protein, UniProt P03042 1-97)
chain: MVRANKRNEALRIESALLNKIAMLGTEKTAEAVGVDKSQISRWKRDWIPKFSMLLAVLEWGVVDDDMARLARQVAAILTNKKRPAATERSEQIQMEF
**Q.** For B3, which binding (GST-FtsH (E. coli)) is on record?
**A.** Its binding is “binds”.

B4: His6-CIII (bacteriophage lambda CIII) (protein, UniProt P03044 1-54)
chain: MQYAIAGWPVAGCPSESLLERITRKLRDGWKRLIDILNQPGVPKNGSNTYGYPD
**Q.** With B4 as the molecule, how does the binding (GST-FtsH (E. coli)) read?
**A.** The binding was “binds”.
